These are yes or no findings as the source states them, for the method shown. In cells and extracts the contact can be indirect. A yes stands for co-enrichment or nearness to the bait. Other partners may have been found.
Target: T1, C-terminally biotinylated synthetic peptide of AtPNP-A (pAtPNP-A) (A. thaliana) (UniProt Q9ZV52)
T1 sequence (peptide, C-terminal biotin): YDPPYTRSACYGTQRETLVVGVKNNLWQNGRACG
Assay: cross-linking + affinity purification with mass spectrometry; biotinylated pAtPNP-A (or biotin as control) added to A. thaliana (Col-0) mesophyll cell protoplasts with or without cross-linking agents; affinity-based isolation, LC-MS/MS; as described in ref. 44; only the target purified

B1: catalase 2 (CAT2), endogenous in A. thaliana mesophyll cell protoplasts (enzyme, UniProt P25819 1-492)
chain: MDPYKYRPASSYNSPFFTTNSGAPVWNNNSSMTVGPRGPILLEDYHLVEKLANFDRERIPERVVHARGASAKGFFEVTHDISNLTCADFLRAPGVQTPVIVRFSTVIHERGSPETLRDPRGFAVKFYTREGNFDLVGNNFPVFFIRDGMKFPDMVHALKPNPKSHIQENWRILDFFSHHPESLNMFTFLFDDIGIPQDYRHMDGSGVNTYMLINKAGKAHYVKFHWKPTCGVKSLLEEDAIRVGGTNHSHATQDLYDSIAAGNYPEWKLFIQIIDPADEDKFDFDPLDVTKTWPEDILPLQPVGRMVLNKNIDNFFAENEQLAFCPAIIVPGIHYSDDKLLQTRVFSYADTQRHRLGPNYLQLPVNAPKCAHHNNHHEGFMNFMHRDEEVNYFPSRYDQVRHAEKYPTPPAVCSGKRERCIIEKENNFKEPGERYRTFTPERQERFIQRWIDALSDPRITHEIRSIWISYWSQADKSLGQKLASRLNVRPSI
B1 was tested, and the binding was “binds”.
